Data reported in patent US20080299123A1, “TREATMENT OF CHEMOTHERAPY- OR RADIOTHERAPY-RESISTANT TUMORS” (Deutsches Krebsforschungszentrum Stiftung des offentlichen …, priority 2006, published 2008).
At least one structure is not confirmed: it was looked up by name or label, or the drawing left a doubt.

Test system: HEK293, HEK293-hL1wt and HEK293-hL1mutTS cells
Test: RA-mediated growth inhibition in vitro
Conditions: cells treated with RA

`CC1=C(/C=C/C(C)=C/C=C/C(C)=C/C(=O)O)C(C)(C)CCC1` [RA, retinoic acid] was tested, and the in vitro growth was “inhibits in vitro growth of HEK293 and HEK293-hL1mutTS but not HEK293-hL1wt cells”.
